These are yes or no findings as the source states them, for the method shown. Binding seen in cells or lysates may run through a third protein. Here binding means that the protein was enriched with, or labelled near, the bait; the list need not be complete.

Protein sequences, listed by entry. Tags and fused reporters are not part of them. Residues count along the entry.
UniProt O60488: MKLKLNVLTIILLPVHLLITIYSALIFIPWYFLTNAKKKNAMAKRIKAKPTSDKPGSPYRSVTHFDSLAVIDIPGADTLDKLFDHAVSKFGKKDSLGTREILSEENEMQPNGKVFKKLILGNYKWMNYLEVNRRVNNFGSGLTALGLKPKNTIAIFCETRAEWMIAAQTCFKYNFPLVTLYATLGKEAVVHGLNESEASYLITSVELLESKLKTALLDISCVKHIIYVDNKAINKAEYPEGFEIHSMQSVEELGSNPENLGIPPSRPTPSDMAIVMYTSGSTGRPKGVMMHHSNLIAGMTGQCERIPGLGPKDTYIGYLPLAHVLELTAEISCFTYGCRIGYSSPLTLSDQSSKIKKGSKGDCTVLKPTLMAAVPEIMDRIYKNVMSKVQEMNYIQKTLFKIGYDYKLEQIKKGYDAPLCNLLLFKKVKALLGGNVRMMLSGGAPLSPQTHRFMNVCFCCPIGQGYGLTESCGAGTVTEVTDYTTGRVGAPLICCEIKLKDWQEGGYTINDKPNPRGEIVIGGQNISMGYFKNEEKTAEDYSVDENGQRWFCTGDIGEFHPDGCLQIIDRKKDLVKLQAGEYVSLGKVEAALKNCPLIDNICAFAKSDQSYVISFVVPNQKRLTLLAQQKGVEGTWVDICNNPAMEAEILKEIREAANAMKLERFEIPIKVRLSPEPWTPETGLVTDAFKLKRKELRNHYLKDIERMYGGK
UniProt Q16822, residues 33-640: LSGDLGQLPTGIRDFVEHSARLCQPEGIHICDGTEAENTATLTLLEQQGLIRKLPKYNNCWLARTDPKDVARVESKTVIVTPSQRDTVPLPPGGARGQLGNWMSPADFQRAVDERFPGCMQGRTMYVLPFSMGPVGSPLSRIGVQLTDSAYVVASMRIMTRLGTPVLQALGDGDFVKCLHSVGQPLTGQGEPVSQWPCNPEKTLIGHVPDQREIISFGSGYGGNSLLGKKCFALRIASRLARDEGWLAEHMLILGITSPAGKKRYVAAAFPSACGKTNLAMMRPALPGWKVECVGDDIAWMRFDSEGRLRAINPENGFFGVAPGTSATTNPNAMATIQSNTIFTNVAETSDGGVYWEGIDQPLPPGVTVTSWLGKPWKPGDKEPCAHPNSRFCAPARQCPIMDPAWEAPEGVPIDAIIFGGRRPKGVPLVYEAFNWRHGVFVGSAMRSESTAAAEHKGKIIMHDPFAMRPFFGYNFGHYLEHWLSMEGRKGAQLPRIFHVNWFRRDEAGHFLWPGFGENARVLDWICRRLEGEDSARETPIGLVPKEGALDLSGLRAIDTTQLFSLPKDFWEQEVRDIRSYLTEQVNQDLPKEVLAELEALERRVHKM
UniProt P14618: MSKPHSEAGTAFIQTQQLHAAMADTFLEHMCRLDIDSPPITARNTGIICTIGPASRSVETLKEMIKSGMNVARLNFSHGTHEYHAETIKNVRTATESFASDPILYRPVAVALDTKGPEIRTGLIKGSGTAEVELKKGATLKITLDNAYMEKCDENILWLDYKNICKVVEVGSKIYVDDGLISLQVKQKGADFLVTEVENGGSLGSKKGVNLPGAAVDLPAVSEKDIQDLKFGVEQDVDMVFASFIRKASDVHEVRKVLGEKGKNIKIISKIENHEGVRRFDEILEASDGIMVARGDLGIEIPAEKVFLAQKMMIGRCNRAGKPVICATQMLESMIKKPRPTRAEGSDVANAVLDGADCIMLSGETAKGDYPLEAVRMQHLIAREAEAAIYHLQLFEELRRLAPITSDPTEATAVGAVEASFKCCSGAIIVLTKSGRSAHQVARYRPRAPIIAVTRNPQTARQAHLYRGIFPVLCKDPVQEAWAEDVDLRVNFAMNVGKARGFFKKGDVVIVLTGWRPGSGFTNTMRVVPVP

This experiment concerns the target Acyl-CoA synthetase long chain family member 4 (ACSL4), endogenous in HONE1 cells (human (endogenous in HONE1)) (UniProt O60488). The experiment can be described thus: affinity purification with mass spectrometry; anti-ACSL4 immunoprecipitates from lysates of HONE1 bulk tumor cells or TRCs, quantitative LC-MS/MS.

With “Mitochondrial phosphoenolpyruvate carboxykinase 2 (PCK2), endogenous in HONE1 cells (from UniProt Q16822 33-640)”, the binding entry is recorded as “binds”.
The same measure for “Pyruvate kinase M2 (PKM2), endogenous in HONE1 cells (from UniProt P14618 1-531)”: “binds”.

B1: PFKP, endogenous in HONE1 cells (protein, UniProt Q01813 1-784)
chain: MDADDSRAPKGSLRKFLEHLSGAGKAIGVLTSGGDAQGMNAAVRAVVRMGIYVGAKVYFIYEGYQGMVDGGSNIAEADWESVSSILQVGGTIIGSARCQAFRTREGRLKAACNLLQRGITNLCVIGGDGSLTGANLFRKEWSGLLEELARNGQIDKEAVQKYAYLNVVGMVGSIDNDFCGTDMTIGTDSALHRIIEVVDAIMTTAQSHQRTFVLEVMGRHCGYLALVSALACGADWVFLPESPPEEGWEEQMCVKLSENRARKKRLNIIIVAEGAIDTQNKPITSEKIKELVVTQLGYDTRVTILGHVQRGGTPSAFDRILASRMGVEAVIALLEATPDTPACVVSLNGNHAVRLPLMECVQMTQDVQKAMDERRFQDAVRLRGRSFAGNLNTYKRLAIKLPDDQIPKTNCNVAVINVGAPAAGMNAAVRSAVRVGIADGHRMLAIYDGFDGFAKGQIKEIGWTDVGGWTGQGGSILGTKRVLPGKYLEEIATQMRTHSINALLIIGGFEAYLGLLELSAAREKHEEFCVPMVMVPATVSNNVPGSDFSIGADTALNTITDTCDRIKQSASGTKRRVFIIETMGGYCGYLANMGGLAAGADAAYIFEEPFDIRDLQSNVEHLTEKMKTTIQRGLVLRNESCSENYTTDFIYQLYSEEGKGVFDCRKNVLGHMQQGGAPSPFDRNFGTKISARAMEWITAKLKEARGRGKKFTTDDSICVLGISKRNVIFQPVAELKKQTDFEHRIPKEQWWLKLRPLMKILAKYKASYDVSDSGQLEHVQPWSV
With B1, the binding entry is “binds”.

B2: Phosphatase PPM1G, endogenous in HONE1 cells (protein, UniProt O15355 1-546)
chain: MGAYLSQPNTVKCSGDGVGAPRLPLPYGFSAMQGWRVSMEDAHNCIPELDSETAMFSVYDGHGGEEVALYCAKYLPDIIKDQKAYKEGKLQKALEDAFLAIDAKLTTEEVIKELAQIAGRPTEDEDEKEKVADEDDVDNEEAALLHEEATMTIEELLTRYGQNCHKGPPHSKSGGGTGEEPGSQGLNGEAGPEDSTRETPSQENGPTAKAYTGFSSNSERGTEAGQVGEPGIPTGEAGPSCSSASDKLPRVAKSKFFEDSEDESDEAEEEEEDSEECSEEEDGYSSEEAENEEDEDDTEEAEEDDEEEEEEMMVPGMEGKEEPGSDSGTTAVVALIRGKQLIVANAGDSRCVVSEAGKALDMSYDHKPEDEVELARIKNAGGKVTMDGRVNGGLNLSRAIGDHFYKRNKNLPPEEQMISALPDIKVLTLTDDHEFMVIACDGIWNVMSSQEVVDFIQSKISQRDENGELRLLSSIVEELLDQCLAPDTSGDGTGCDNMTCIIICFKPRNTAELQPESGKRKLEEVLSTEGAEENGNSDKKKKAKRD
As for B2, the binding result is given as “binds”.

The record behind these values is PMC11427348.
